Experimental data: patent publication US20030162803A1, “Anhydrovinblastine for the treatment of cancer” (priority 1997, published 2003)
Some results were stated once for a whole list of compounds, not compound by compound.

Tested on: Nb2-U17 lymphoma transplants
Experiment: Rat U17 lymphoma model (Nb2-U17 tumor transplants)
Type: in vivo, Nb rats
Conditions: single intraperitoneal subacutely toxic dose, FIG. 2
From the text: The U17 cell line was originally derived from a transplantable malignant lymphoma that arose spontaneously in male Noble rats (British Columbia Cancer Research Centre Joint Animal Breeding Facility with parents obtained from the National Institutes of Health, Bethesda, Md.). The cell line is prolactin dependent and can readily be cultured in vitro. U17 derived solid tumors are generated by subcutaneous injection (via the trocar method) of a small (2 mm^2) piece of tumor tissue obtained from male Noble rat. Tumor tissue used for the implants arose two weeks after injection of 5×10^6 U17 cells (from culture) subcutaneously in the nape of the neck. For assessing the anti-tumor activity of AHVB, tumor bearing animals (2-4 gm tumors) were given a single treatment of drug and tumor size was measured as a function of time following treatment. The anti-tumor activity was assessed at a series of different doses in order to determine the maximum therapeutic dose of AHVB. […] For these studies anti-tumor activity was determined at the maximum therapeutic dose of each drug. […]
The oncolytic effects of each of the three drugs were assessed at a subacutely toxic dose, determined for each drug in preliminary studies using non-tumor-bearing, mature male Nb rats, i.e. 3.0, 2.0 and 0.7 mg/kg for AHVB, Navelbine™ and vincristine, respectively as illustrated in FIG. 2. […]

SMILES: CCC1=C[C@@H]2CN(C1)Cc1c([nH]c3ccccc13)[C@@](C(=O)OC)(c1cc3c(cc1OC)N(C)[C@H]1[C@@](O)(C(=O)OC)[C@H](OC(C)=O)[C@]4(CC)C=CCN5CC[C@]31[C@@H]54)C2 [Navelbine, 3′,4′-didehydro-4′-deoxy-C′-norvincaleukoblastine-di-L-tartrate]
- recurrence of tumors: > 10 days
